No constants are given. Whether binding was seen depends on the method and setting. In cells and extracts the contact can be indirect. A result given as binding can be weak or reduced; the word gives no strength.
Molecular target: endogenous NF90 (Nuclear Factor 90) (human (endogenous in LNCaP, LNCaP-abl, C4-2B, 22Rv1))
Assay: co-IP

binding: binds
B1: endogenous NF110 (protein, UniProt Q12906 1-894)
chain: MRPMRIFVNDDRHVMAKHSSVYPTQEELEAVQNMVSHTERALKAVSDWIDEQEKGSSEQAESDNMDVPPEDDSKEGAGEQKTEHMTRTLRGVMRVGLVAKGLLLKGDLDLELVLLCKEKPTTALLDKVADNLAIQLAAVTEDKYEILQSVDDAAIVIKNTKEPPLSLTIHLTSPVVREEMEKVLAGETLSVNDPPDVLDRQKCLAALASLRHAKWFQARANGLKSCVIVIRVLRDLCTRVPTWGPLRGWPLELLCEKSIGTANRPMGAGEALRRVLECLASGIVMPDGSGIYDPCEKEATDAIGHLDRQQREDITQSAQHALRLAAFGQLHKVLGMDPLPSKMPKKPKNENPVDYTVQIPPSTTYAITPMKRPMEEDGEEKSPSKKKKKIQKKEEKAEPPQAMNALMRLNQLKPGLQYKLVSQTGPVHAPIFTMSVEVDGNSFEASGPSKKTAKLHVAVKVLQDMGLPTGAEGRDSSKGEDSAEETEAKPAVVAPAPVVEAVSTPSAAFPSDATAEQGPILTKHGKNPVMELNEKRRGLKYELISETGGSHDKRFVMEVEVDGQKFQGAGSNKKVAKAYAALAALEKLFPDTPLALDANKKKRAPVPVRGGPKFAAKPHNPGFGMGGPMHNEVPPPPNLRGRGRGGSIRGRGRGRGFGGANHGGYMNAGAGYGSYGYGGNSATAGYSQFYSNGGHSGNASGGGGGGGGGSSGYGSYYQGDNYNSPVPPKHAGKKQPHGGQQKPSYGSGYQSHQGQQQSYNQSPYSNYGPPQGKQKGYNHGQGSYSYSNSYNSPGGGGGSDYNYESKFNYSGSGGRSGGNSYGSGGASYNPGSHGGYGGGSGGGSSYQGKQGGYSQSNYNSPGSGQNYSGPPSSYQSSQGGYGRNADHSMNYQYR
